Experimental data as given in the supplement of paper PMC11348887.
Where a name gives a salt, the structure may show the parent alone. This is one part of the list. Most entries show no effect beyond the scatter of the controls.

The compounds below were run on hPSC-derived cortical neurons (WA09) (assay: nucleus area z-score vs screen plate; higher = larger nuclei (more mature)). Conditions: 5 µM; treatment: days 7-14 after plating, readout day 21.
Compound `Oc1c(F)cc(-c2cnccc2-c2ccc(N3CCOCC3)cc2)cc1F` has a nucleus area z-score of 1.69.
With `N=C(N)c1ccc(N=NNc2ccc(C(=N)N)cc2)cc1` [Diminazene Aceturate] the nucleus area z-score was -0.415.
`Oc1ccc(OCc2ccccc2)cc1` [Monobenzone] gave a nucleus area z-score of -0.433.
`CN1CC[C@H](c2c(O)cc(O)c3c(=O)cc(-c4ccccc4Cl)oc23)[C@H](O)C1` [Flavopiridol HCl] was tested, and the nucleus area z-score was -14.
In the case of `NCCCC[C@H](N[C@@H](CCc1ccccc1)C(=O)O)C(=O)N1CCC[C@H]1C(=O)O` [Lisinopril], the nucleus area z-score was -0.1.
`CCCc1nc2c(C)cc(-c3nc4ccccc4n3C)cc2n1Cc1ccc(-c2ccccc2C(=O)O)cc1` [Telmisartan] showed a nucleus area z-score of 0.827.
`CN(C)C(=O)COC(=O)Cc1ccc(OC(=O)c2ccc(NC(=N)N)cc2)cc1` [Camostat Mesilate] gave a nucleus area z-score of 0.921.
In the case of `CCN1CCN(Cc2ccc(C(=O)Nc3ccc(C)c(Oc4ccc5c(c4)CC(=O)N5)c3)cc2C(F)(F)F)CC1`, the nucleus area z-score was -0.79.
With `CCCc1nn(C)c2c(=O)[nH]c(-c3cc(S(=O)(=O)N4CCN(C)CC4)ccc3OCC)nc12` [Sildenafil Citrate] the nucleus area z-score was 0.767.
`COc1cc2ncnc(Sc3nnc(C)s3)c2cc1OC` gave a nucleus area z-score of 0.698.
With `Cc1cccc(-c2[nH]c(C(C)(C)C)nc2-c2ccc3nccnc3c2)n1` the nucleus area z-score was 4.45.
In the case of `N#C[C@@H]1C[C@@H]2C[C@@H]2N1C(=O)[C@@H](N)C12CC3CC(CC(O)(C3)C1)C2` [Saxagliptin hydrate], the nucleus area z-score was -0.216.
In the case of `Cc1cc(C)c(CNC(=O)c2cc(-c3ccc(N4CCN(C)CC4)nc3)cc3c2c(C)cn3C(C)C)c(=O)[nH]1`, the nucleus area z-score was 8.42e-05.
In the case of `COCCc1ccc(OCC(O)CNC(C)C)cc1` (stereo not drawn) [Metoprolol Tartrate], the nucleus area z-score was 1.17.
`Cc1cc(OCc2nnc(SC3CCCC3)n2-c2cccnc2)ccc1-c1ccc(S(C)(=O)=O)cc1` showed a nucleus area z-score of -0.0588.
`COc1nc(OCc2cccc(-c3ccccc3)c2C)ccc1CNCCNC(C)=O` [PD-1/PD-L1 inhibitor 2] gave a nucleus area z-score of -2.
With `CC1(C)S[C@@H]2[C@H](NC(=O)[C@H](N)c3ccccc3)C(=O)N2[C@H]1C(=O)O` [Ampicillin sodium] the nucleus area z-score was 1.15.
Work on `O=C(c1cn(Cc2cncn2Cc2ccc(Br)cc2)cc1-c1cccc2ccccc12)N1CCOCC1` yielded a nucleus area z-score of -2.79.
In the case of `Cc1[nH]c2ccccc2c1CCNC(=O)c1cccs1`, the nucleus area z-score was 0.288.
`C#Cc1cccc(Nc2ncnc3cc4c(cc23)OCCOCCOCCO4)c1` [Icotinib] was tested, and the nucleus area z-score was -0.0216.
For `CCNc1nc(Nc2cc(F)c(C(=O)N3CCOCC3)cc2OC)ncc1C(F)(F)F`, the nucleus area z-score was 1.63.
`Cc1cccn2c(=O)c(-c3nnn[nH]3)cnc12` [Pemirolast potassium] was tested, and the nucleus area z-score was -0.43.
Work on `COc1cc(OC2CCN(C)CC2)ccc1Nc1ncc2c(n1)n(C1CCCC1)c(=O)n2C` yielded a nucleus area z-score of -1.1.
With `C[C@@H](O[C@H]1OCCN(Cc2nn(P(=O)(O)O)c(=O)[nH]2)[C@H]1c1ccc(F)cc1)c1cc(C(F)(F)F)cc(C(F)(F)F)c1` [Fosaprepitant dimeglumine salt] the nucleus area z-score was -1.73.
With `c1ccc(C2CN3CCSC3=N2)cc1` (single isomer, unassigned; (-)) [(-)-Tetramisole] the nucleus area z-score was 0.572.
`NCCCCCC(=O)O` [_6-__-_Aminocaproic acid] showed a nucleus area z-score of 0.835.
`CC(=O)Nc1nnc(S(N)(=O)=O)s1` [Acetazolamide] was tested, and the nucleus area z-score was 0.771.
`CCCc1nc(C)c2c(=O)nc(-c3cc(S(=O)(=O)N4CCN(CC)CC4)ccc3OCC)[nH]n12` [Vardenafil HCl Trihydrate] showed a nucleus area z-score of 0.601.
For `CCCCOc1ccc(OCCCN2CCOCC2)cc1` [Pramoxine HCl], the nucleus area z-score was 0.987.
`O=C(O)/C=C/c1ccc(Cn2ccnc2)cc1` [Ozagrel] gave a nucleus area z-score of 1.01.
`CCN(CC)CCOc1ccc(C(=C(Cl)c2ccccc2)c2ccccc2)cc1` [Clomifene citrate] was tested, and the nucleus area z-score was -4.48.
Compound `O=C(O)C(Cc1c[nH]c2ccccc12)N1C(=O)c2ccccc2C1=O` (stereo not drawn) has a nucleus area z-score of 0.756.
`COC(=O)c1ccc2c(c1)[nH]c1ncnc(NCCCN3CCCCC3)c12` gave a nucleus area z-score of -1.25.
Work on `CC(=O)S[C@@H]1CC2=CC(=O)CC[C@]2(C)[C@H]2CC[C@@]3(C)[C@@H](CC[C@@]34CCC(=O)O4)[C@H]12` [Spironolactone] yielded a nucleus area z-score of 0.221.
Compound `CC12CC3CC(C)(C1)CC(N)(C3)C2` [Memantine HCl] has a nucleus area z-score of -0.476.
With `C1N2CN3CN1CN(C2)C3` [Methenamine] the nucleus area z-score was 0.394.
With `Cc1ccccc1N1C(=O)c2cc(S(N)(=O)=O)c(Cl)cc2NC1C` (stereo not drawn) [Metolazone] the nucleus area z-score was 0.425.
`CN1CCN2c3ncccc3Cc3ccccc3C2C1` (stereo not drawn) [Mirtazapine] was tested, and the nucleus area z-score was 0.00172.
Work on `CC(=O)Oc1cc(C(F)(F)F)ccc1C(=O)O` [Triflusal] yielded a nucleus area z-score of -1.97.

Each compound was assayed on hPSC-derived cortical neurons (WA09) (assay: total neurite length per nucleus (MAP2) z-score; higher = more neurite growth). Conditions: 5 µM; treatment: days 7-14 after plating, readout day 21.
In the case of `Oc1c(F)cc(-c2cnccc2-c2ccc(N3CCOCC3)cc2)cc1F`, the “total neurite length per nucleus (z-score)” value was 0.00576.
`N=C(N)c1ccc(N=NNc2ccc(C(=N)N)cc2)cc1` [Diminazene Aceturate] was tested, and the “total neurite length per nucleus (z-score)” value was 0.447.
For `Oc1ccc(OCc2ccccc2)cc1` [Monobenzone], the “total neurite length per nucleus (z-score)” value was 1.25.
With `CN1CC[C@H](c2c(O)cc(O)c3c(=O)cc(-c4ccccc4Cl)oc23)[C@H](O)C1` [Flavopiridol HCl] the “total neurite length per nucleus (z-score)” value was -5.76.
For `NCCCC[C@H](N[C@@H](CCc1ccccc1)C(=O)O)C(=O)N1CCC[C@H]1C(=O)O` [Lisinopril], the “total neurite length per nucleus (z-score)” value was 1.04.
In the case of `CCCc1nc2c(C)cc(-c3nc4ccccc4n3C)cc2n1Cc1ccc(-c2ccccc2C(=O)O)cc1` [Telmisartan], the “total neurite length per nucleus (z-score)” value was -1.53.
`CN(C)C(=O)COC(=O)Cc1ccc(OC(=O)c2ccc(NC(=N)N)cc2)cc1` [Camostat Mesilate] was tested, and the “total neurite length per nucleus (z-score)” value was 0.348.
With `CCN1CCN(Cc2ccc(C(=O)Nc3ccc(C)c(Oc4ccc5c(c4)CC(=O)N5)c3)cc2C(F)(F)F)CC1` the “total neurite length per nucleus (z-score)” value was -1.19.
For `CCCc1nn(C)c2c(=O)[nH]c(-c3cc(S(=O)(=O)N4CCN(C)CC4)ccc3OCC)nc12` [Sildenafil Citrate], the “total neurite length per nucleus (z-score)” value was -0.301.
In the case of `COc1cc2ncnc(Sc3nnc(C)s3)c2cc1OC`, the “total neurite length per nucleus (z-score)” value was 0.983.
In the case of `Cc1cccc(-c2[nH]c(C(C)(C)C)nc2-c2ccc3nccnc3c2)n1`, the “total neurite length per nucleus (z-score)” value was -3.06.
In the case of `N#C[C@@H]1C[C@@H]2C[C@@H]2N1C(=O)[C@@H](N)C12CC3CC(CC(O)(C3)C1)C2` [Saxagliptin hydrate], the “total neurite length per nucleus (z-score)” value was -0.0145.
In the case of `Cc1cc(C)c(CNC(=O)c2cc(-c3ccc(N4CCN(C)CC4)nc3)cc3c2c(C)cn3C(C)C)c(=O)[nH]1`, the “total neurite length per nucleus (z-score)” value was 0.367.
For `COCCc1ccc(OCC(O)CNC(C)C)cc1` (stereo not drawn) [Metoprolol Tartrate], the “total neurite length per nucleus (z-score)” value was -0.547.
With `Cc1cc(OCc2nnc(SC3CCCC3)n2-c2cccnc2)ccc1-c1ccc(S(C)(=O)=O)cc1` the “total neurite length per nucleus (z-score)” value was 0.655.
`COc1nc(OCc2cccc(-c3ccccc3)c2C)ccc1CNCCNC(C)=O` [PD-1/PD-L1 inhibitor 2] was tested, and the “total neurite length per nucleus (z-score)” value was -1.84.
For `CC1(C)S[C@@H]2[C@H](NC(=O)[C@H](N)c3ccccc3)C(=O)N2[C@H]1C(=O)O` [Ampicillin sodium], the “total neurite length per nucleus (z-score)” value was -1.38.
In the case of `O=C(c1cn(Cc2cncn2Cc2ccc(Br)cc2)cc1-c1cccc2ccccc12)N1CCOCC1`, the “total neurite length per nucleus (z-score)” value was 0.548.
`Cc1[nH]c2ccccc2c1CCNC(=O)c1cccs1` was tested, and the “total neurite length per nucleus (z-score)” value was 0.59.
For `C#Cc1cccc(Nc2ncnc3cc4c(cc23)OCCOCCOCCO4)c1` [Icotinib], the “total neurite length per nucleus (z-score)” value was 0.512.
With `CCNc1nc(Nc2cc(F)c(C(=O)N3CCOCC3)cc2OC)ncc1C(F)(F)F` the “total neurite length per nucleus (z-score)” value was 1.45.
`Cc1cccn2c(=O)c(-c3nnn[nH]3)cnc12` [Pemirolast potassium] was tested, and the “total neurite length per nucleus (z-score)” value was 0.604.
In the case of `COc1cc(OC2CCN(C)CC2)ccc1Nc1ncc2c(n1)n(C1CCCC1)c(=O)n2C`, the “total neurite length per nucleus (z-score)” value was -0.322.
For `C[C@@H](O[C@H]1OCCN(Cc2nn(P(=O)(O)O)c(=O)[nH]2)[C@H]1c1ccc(F)cc1)c1cc(C(F)(F)F)cc(C(F)(F)F)c1` [Fosaprepitant dimeglumine salt], the “total neurite length per nucleus (z-score)” value was -1.23.
For `c1ccc(C2CN3CCSC3=N2)cc1` (single isomer, unassigned; (-)) [(-)-Tetramisole], the “total neurite length per nucleus (z-score)” value was 0.0839.
In the case of `NCCCCCC(=O)O` [_6-__-_Aminocaproic acid], the “total neurite length per nucleus (z-score)” value was 1.14.
`CC(=O)Nc1nnc(S(N)(=O)=O)s1` [Acetazolamide] was tested, and the “total neurite length per nucleus (z-score)” value was 3.63.
`CCCc1nc(C)c2c(=O)nc(-c3cc(S(=O)(=O)N4CCN(CC)CC4)ccc3OCC)[nH]n12` [Vardenafil HCl Trihydrate] was tested, and the “total neurite length per nucleus (z-score)” value was 0.867.
`CCCCOc1ccc(OCCCN2CCOCC2)cc1` [Pramoxine HCl] was tested, and the “total neurite length per nucleus (z-score)” value was -0.908.
For `O=C(O)/C=C/c1ccc(Cn2ccnc2)cc1` [Ozagrel], the “total neurite length per nucleus (z-score)” value was 0.0091.
In the case of `CCN(CC)CCOc1ccc(C(=C(Cl)c2ccccc2)c2ccccc2)cc1` [Clomifene citrate], the “total neurite length per nucleus (z-score)” value was -3.51.
With `O=C(O)C(Cc1c[nH]c2ccccc12)N1C(=O)c2ccccc2C1=O` (stereo not drawn) the “total neurite length per nucleus (z-score)” value was -0.572.
With `COC(=O)c1ccc2c(c1)[nH]c1ncnc(NCCCN3CCCCC3)c12` the “total neurite length per nucleus (z-score)” value was 1.37.
`CC(=O)S[C@@H]1CC2=CC(=O)CC[C@]2(C)[C@H]2CC[C@@]3(C)[C@@H](CC[C@@]34CCC(=O)O4)[C@H]12` [Spironolactone] was tested, and the “total neurite length per nucleus (z-score)” value was 0.185.
In the case of `CC12CC3CC(C)(C1)CC(N)(C3)C2` [Memantine HCl], the “total neurite length per nucleus (z-score)” value was 2.13.
For `C1N2CN3CN1CN(C2)C3` [Methenamine], the “total neurite length per nucleus (z-score)” value was 1.03.
In the case of `Cc1ccccc1N1C(=O)c2cc(S(N)(=O)=O)c(Cl)cc2NC1C` (stereo not drawn) [Metolazone], the “total neurite length per nucleus (z-score)” value was 0.72.
With `CN1CCN2c3ncccc3Cc3ccccc3C2C1` (stereo not drawn) [Mirtazapine] the “total neurite length per nucleus (z-score)” value was 0.551.
For `CC(=O)Oc1cc(C(F)(F)F)ccc1C(=O)O` [Triflusal], the “total neurite length per nucleus (z-score)” value was 0.0742.
